Experimental data from paper PMC10036336.
These are yes or no findings as the source states them, for the method shown. Some results given as binding are weak or reduced against the parent protein; the word gives no strength.

Target: T1, CD47 in CT-26 cells (mouse (endogenous in CT-26)) (UniProt Q61735)
T1 sequence: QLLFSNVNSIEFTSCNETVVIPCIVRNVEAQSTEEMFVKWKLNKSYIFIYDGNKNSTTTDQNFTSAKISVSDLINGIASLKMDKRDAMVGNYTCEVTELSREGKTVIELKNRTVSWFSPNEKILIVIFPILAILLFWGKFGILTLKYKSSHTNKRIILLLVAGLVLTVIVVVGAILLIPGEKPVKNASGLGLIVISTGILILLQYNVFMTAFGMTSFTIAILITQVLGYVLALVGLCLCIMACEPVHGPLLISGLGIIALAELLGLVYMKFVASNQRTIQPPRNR
Assay: competition binding assay on cells (fluorescence of unbound labelled antibody in the supernatant); CT-26 cells co-incubated with Cy5.5-labeled anti-CD47 antibody (20 ng/mL) and three-fold dilutions of bacterial lysate (8.47 x 10^-5 to 5.00 mg/mL), 2 h at 4 °C

binding: binds
B1: anti-CD47 nanobody (CD47nb) (VHH)
VHH: QVQLVESGGGLVEPGGSLRLSCAASGIIFKINDMGWYRQAPGKRREWVAASTGGDEAIYRDSVKDRFTISRDAKNSVFLQMNSLKPEDTAVYYCTAVISTDRDGTEWRRYWGQGTQVTVSS
